From the supplement of paper PMC8007513
The other results are listed elsewhere or left out. Many values rest on one well or one pass, so single values are uncertain.

Each molecule was assayed on Saccharomyces cerevisiae BY4743 (assay: growth (OD600) with compound + IPBC relative to untreated control; higher = less growth inhibition). Conditions: compound concentration: 133 uM; IPBC concentration: 0.5 ug/ml; 20 h.
Procedure: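 NMCCC compounds (133 uM) combined with IPBC (0.5 ug/ml) against Saccharomyces cerevisiae BY4743 in YPD, 96-well plates. Growth was read as OD600 at 20 h and expressed as % of the untreated control. Single pass.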

Structure (SMILES) | growth
COC1=CC=C(C=C1OC)C(=O)N2CCN(CC2)C/3=C(\Cl)C(=O)N(C)/N=C3 + CCCCNC(=O)OCC#CI [3-iodo-2-propynyl butylcarbamate (IPBC)] | 92.2%
CCN(CC)S(=O)(=O)c1cc(-c2nnc(O)c3ccccc23)ccc1C + CCCCNC(=O)OCC#CI [3-iodo-2-propynyl butylcarbamate (IPBC)] | 86.5%
Nc1cn(-c2ccccc2)nc1-c1ccc(Cl)cc1 + CCCCNC(=O)OCC#CI [3-iodo-2-propynyl butylcarbamate (IPBC)] | 92.9%
CCN1\N=C(\C(=O)OC2CCOC2=O)C3=CC=CC=C3C1=O (configuration not stated) + CCCCNC(=O)OCC#CI [3-iodo-2-propynyl butylcarbamate (IPBC)] | 99%
CCNc1sc(S(C)(=O)=O)nc1S(=O)(=O)c1ccc(Cl)cc1 + CCCCNC(=O)OCC#CI [3-iodo-2-propynyl butylcarbamate (IPBC)] | 112%
CCOC(=O)c1cc(C(=O)N2CCOCC2)nn1C + CCCCNC(=O)OCC#CI [3-iodo-2-propynyl butylcarbamate (IPBC)] | 92%
COC(=O)c1nn(CC(=O)c2ccc(F)cc2)c2ccccc12 + CCCCNC(=O)OCC#CI [3-iodo-2-propynyl butylcarbamate (IPBC)] | 100%
COc1ccc(CN(C)C(=O)c2sc(NC(=O)c3ccco3)cc2C)c(OC)c1 + CCCCNC(=O)OCC#CI [3-iodo-2-propynyl butylcarbamate (IPBC)] | 108%
COC(=O)COC1=CC=C2C(=O)\C(=C/OC2=C1)OC3=CC=C(C=C3)C(C)(C)C + CCCCNC(=O)OCC#CI [3-iodo-2-propynyl butylcarbamate (IPBC)] | 103%
Cc1ccc(C)c(C(=O)CSc2nncn2Cc2ccco2)c1 + CCCCNC(=O)OCC#CI [3-iodo-2-propynyl butylcarbamate (IPBC)] | 103%
Cc1ccc(C(C)NC(=O)c2ccnn2C)c(C)c1 (configuration not stated) + CCCCNC(=O)OCC#CI [3-iodo-2-propynyl butylcarbamate (IPBC)] | 86.2%
CCCC(=O)N\C1=C(\C(=O)C2=CC=CC=C2N1CC)C3=CC=CS3 + CCCCNC(=O)OCC#CI [3-iodo-2-propynyl butylcarbamate (IPBC)] | 88.9%
CC(C)NC(=O)CNC(=O)CSc1nnc(NCc2ccc(F)cc2)s1 + CCCCNC(=O)OCC#CI [3-iodo-2-propynyl butylcarbamate (IPBC)] | 107%
CC(=O)c1c(C)[nH]c(C(=O)C(C)NCc2ccccc2CN2CCCC2)c1C (configuration not stated) + CCCCNC(=O)OCC#CI [3-iodo-2-propynyl butylcarbamate (IPBC)] | 96%
CC(=O)c1ccc(NC(=O)c2nc3nc(C)cc(C(F)F)n3n2)cc1 + CCCCNC(=O)OCC#CI [3-iodo-2-propynyl butylcarbamate (IPBC)] | 98.9%
CCCc1n[nH]c(SCC(=O)NC(C)c2ccc3c(c2)OCCO3)n1 (configuration not stated) + CCCCNC(=O)OCC#CI [3-iodo-2-propynyl butylcarbamate (IPBC)] | 101%
CCOC(=O)N1CCN(C(=O)c2cc(-c3ccc(CC)cc3)[nH]n2)CC1 + CCCCNC(=O)OCC#CI [3-iodo-2-propynyl butylcarbamate (IPBC)] | 93.3%
COc1cc(OC)c(NS(=O)(=O)c2cc3c(cc2C)N(C(C)=O)CCO3)cc1Cl + CCCCNC(=O)OCC#CI [3-iodo-2-propynyl butylcarbamate (IPBC)] | 100%
FC(F)(F)C/1=C/N(CC/2=C/C(=O)N/3\C=C(Br)/C=C\C3=N2)C(=O)/C=C1 + CCCCNC(=O)OCC#CI [3-iodo-2-propynyl butylcarbamate (IPBC)] | 102%
CCCCN(C(=O)c1noc2c1CC(C)CC2)C1CCN(C(C)=O)CC1 (configuration not stated) + CCCCNC(=O)OCC#CI [3-iodo-2-propynyl butylcarbamate (IPBC)] | 91%
Cc1ccc(Cl)cc1N1CCN(CCNS(=O)(=O)c2csc(C(N)=O)c2)CC1 + CCCCNC(=O)OCC#CI [3-iodo-2-propynyl butylcarbamate (IPBC)] | 97.8%
CS(=O)(=O)NCCc1ccc(C(=O)OCC(=O)N2CCCc3ccccc32)s1 + CCCCNC(=O)OCC#CI [3-iodo-2-propynyl butylcarbamate (IPBC)] | 103%

Retrieved one by one from the entries so far, 2 records:
Structure (SMILES) | growth
COc1ccc(CN(C)C(=O)c2sc(NC(=O)c3ccco3)cc2C)c(OC)c1 + CCCCNC(=O)OCC#CI [3-iodo-2-propynyl butylcarbamate (IPBC)] | 108%
CCOC(=O)N1CCN(C(=O)c2cc(-c3ccc(CC)cc3)[nH]n2)CC1 + CCCCNC(=O)OCC#CI [3-iodo-2-propynyl butylcarbamate (IPBC)] | 93.3%
